Results deposited as PubChem BioAssay AID1053209 (Peter MacCallum Cancer Centre, 2014).
Aim: 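Gene losses that combine with doxorubicin to kill mouse bone cancer cells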 (follow-up of hits). System: mouse primary osteosarcoma cells. Reagents: single siRNA against mouse genes, 25 nM (text also states 40 nM). Timing: about 120 h (48 h before drug, then 72 h with drug). Conditions: doxorubicin 100 nM (about IC30-40), added 48 h after transfection, for 72 h. Measured: 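Viability measured by ATP luminescence with and without doxorubicin, each replicate scaled to non-targeting siRNA NT1, averaged over two replicates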. Reading the numbers: viability with doxorubicin, vs NT1: higher = more viable cells under doxorubicin; viability ratio, doxorubicin over no drug: higher = less sensitisation to doxorubicin; viability without drug, vs NT1: higher = more viable cells without drug. Active means: 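Counted as active (class LC dox) if viability falls to 0.7 of NT1 or below under doxorubicin but stays within 0.7 to 1.1 without drug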.
Shown is one part, drawn at random, of about 1,580 deposited reagents. In the full data, 207 (13%) were called active. 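Rows are single siRNAs; four siRNAs per gene were tested, a gene counting as confirmed only when at least two agree.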 Reagents against one gene are numbered here.

Target gene	reagent	combined effect class	viability with doxorubicin, vs NT1	viability ratio, doxorubicin over no drug	viability without drug, vs NT1	outcome
Socs1	1	high viability only with doxorubicin	1.1	1.09	1.01	inactive
Socs1	2	high viability only with doxorubicin	1.14	1.12	1.02	inactive
Socs1	3	normal viability with and without drug	0.98	1.11	0.88	inactive
Socs1	4	normal viability with and without drug	0.84	0.79	1.06	inactive
Snrnp40	1	normal viability with and without drug	0.8	0.91	0.88	inactive
Snrnp40	2	high viability only with doxorubicin	1.1	1.07	1.03	inactive
Snrnp40	3	normal viability with and without drug	1.06	1.05	1.01	inactive
Snrnp40	4	normal viability with and without drug	0.99	0.92	1.08	inactive
Rasal1	1	normal viability with and without drug	1.04	1.04	1	inactive
Rasal1	2	normal viability with and without drug	0.89	0.94	0.95	inactive
Rasal1	3	high viability only without drug	1.06	0.96	1.1	inactive
Rasal1	4	normal viability with and without drug	0.84	0.84	1	inactive
Pirb	1	normal viability with and without drug	0.9	0.92	0.98	inactive
Pirb	2	normal viability with and without drug	0.75	0.8	0.94	inactive
Pirb	3	low viability only with doxorubicin; normal without drug	0.31	0.41	0.75	active
Pirb	4	normal viability with and without drug	0.94	0.92	1.02	inactive
Rps13	1	low viability with and without drug	0.14	0.82	0.17	inactive
Rps13	2	low viability with and without drug	0.24	0.63	0.38	inactive
Rps13	3	low viability with and without drug	0.16	0.73	0.22	inactive
Rps13	4	low viability with and without drug	0.26	0.65	0.4	inactive
Prkaa2	1	normal viability with and without drug	1	1.11	0.9	inactive
Prkaa2	2	normal viability with and without drug	0.84	0.95	0.88	inactive
Prkaa2	3	normal viability with and without drug	0.98	1	0.98	inactive
Prkaa2	4	high viability only with doxorubicin	1.18	1.11	1.06	inactive
Prpf4b	1	normal viability with and without drug	1.04	0.98	1.06	inactive
Prpf4b	2	normal viability with and without drug	1.06	1.13	0.94	inactive
Prpf4b	3	normal viability with and without drug	0.83	0.93	0.89	inactive
Prpf4b	4	normal viability with and without drug	0.84	0.89	0.94	inactive
Nup214	1	normal viability with and without drug	0.74	0.92	0.8	inactive
Nup214	2	low viability with and without drug	0.52	0.87	0.6	inactive
Nup214	3	low viability with and without drug	0.55	0.89	0.62	inactive
Nup214	4	low viability with and without drug	0.6	0.88	0.68	inactive
Zfx	1	normal viability with and without drug	0.9	0.96	0.94	inactive
Zfx	2	high viability only with doxorubicin	1.1	1.12	0.98	inactive
Zfx	3	normal viability with and without drug	0.98	0.94	1.04	inactive
Zfx	4	high viability only with doxorubicin	1.15	1.17	0.98	inactive
Spsb1	1	normal viability with and without drug	0.97	1.01	0.96	inactive
Spsb1	2	normal viability with and without drug	0.84	0.82	1.02	inactive
Spsb1	3	normal viability with and without drug	0.96	1	0.96	inactive
Spsb1	4	normal viability with and without drug	1.01	0.97	1.04	inactive

Records above whose gene name starts with Z or z:
Target gene	reagent	combined effect class	viability with doxorubicin, vs NT1	viability ratio, doxorubicin over no drug	viability without drug, vs NT1	outcome
Zfx	1	normal viability with and without drug	0.9	0.96	0.94	inactive
Zfx	2	high viability only with doxorubicin	1.1	1.12	0.98	inactive
Zfx	3	normal viability with and without drug	0.98	0.94	1.04	inactive
Zfx	4	high viability only with doxorubicin	1.15	1.17	0.98	inactive
